In paper doi:10.1101/668509 one finds binding data, which are given here for 1 molecule.

The chains behind the UniProt entries cited, without tags or fusion partners. Residues count along the entry.
UniProt P08050, residues 255-382: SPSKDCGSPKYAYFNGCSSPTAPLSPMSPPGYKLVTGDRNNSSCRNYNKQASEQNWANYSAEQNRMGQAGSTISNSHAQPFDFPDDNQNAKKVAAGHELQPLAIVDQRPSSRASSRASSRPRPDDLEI

Results are given in words; binding and its absence hold for the method and conditions named. Some entries that bind do so weakly or less than the wild type.

This assay addresses Cx43 CT (UniProt P08050). Kind of assay: protein thermal shift.

RPRPDDLEI (biotin (biotin-αCT11 in the kinase assay)) [αCT11]: the binding entry is given as “binds”.
